Reference: ChEMBL document CHEMBL1122480, “Synthesis and pharmacological studies of 4,4-disubstituted piperidines: a new class of compounds with potent analgesic properties” (J Med Chem, 1983)

The chains behind the UniProt entries cited, without tags or fusion partners. Where a name states a change or a piece, a line headed by the entry shows the natural chain unless it says otherwise.
UniProt P33533: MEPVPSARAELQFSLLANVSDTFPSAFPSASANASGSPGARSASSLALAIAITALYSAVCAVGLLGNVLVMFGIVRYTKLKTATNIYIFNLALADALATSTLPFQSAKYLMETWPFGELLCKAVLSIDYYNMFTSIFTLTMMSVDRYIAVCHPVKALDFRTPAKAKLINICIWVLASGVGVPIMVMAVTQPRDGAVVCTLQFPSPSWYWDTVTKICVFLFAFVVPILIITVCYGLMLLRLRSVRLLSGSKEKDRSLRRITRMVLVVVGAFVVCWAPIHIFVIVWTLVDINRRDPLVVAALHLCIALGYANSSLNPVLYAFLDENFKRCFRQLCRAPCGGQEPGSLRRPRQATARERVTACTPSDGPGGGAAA
UniProt P34975: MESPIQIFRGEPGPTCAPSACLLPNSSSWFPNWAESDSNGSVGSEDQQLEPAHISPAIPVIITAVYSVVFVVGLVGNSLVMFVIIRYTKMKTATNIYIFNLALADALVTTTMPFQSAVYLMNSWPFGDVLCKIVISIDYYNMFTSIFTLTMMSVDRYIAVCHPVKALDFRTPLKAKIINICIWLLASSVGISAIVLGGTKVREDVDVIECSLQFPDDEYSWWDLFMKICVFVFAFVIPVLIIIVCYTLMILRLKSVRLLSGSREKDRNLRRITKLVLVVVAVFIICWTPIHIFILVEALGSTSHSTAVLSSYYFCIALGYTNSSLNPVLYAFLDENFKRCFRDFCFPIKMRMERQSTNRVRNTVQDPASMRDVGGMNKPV
UniProt P33535: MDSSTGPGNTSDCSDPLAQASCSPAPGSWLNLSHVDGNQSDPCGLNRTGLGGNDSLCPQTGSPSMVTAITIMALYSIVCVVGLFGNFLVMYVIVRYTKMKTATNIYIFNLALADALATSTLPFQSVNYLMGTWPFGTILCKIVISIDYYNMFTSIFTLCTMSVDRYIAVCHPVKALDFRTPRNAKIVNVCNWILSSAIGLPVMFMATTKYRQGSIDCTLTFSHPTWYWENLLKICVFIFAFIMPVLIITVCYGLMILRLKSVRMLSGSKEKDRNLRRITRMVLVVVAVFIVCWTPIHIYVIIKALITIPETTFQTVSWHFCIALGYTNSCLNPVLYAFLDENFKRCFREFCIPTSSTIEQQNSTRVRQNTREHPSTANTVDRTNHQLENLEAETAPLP

How the values were obtained:
Opioid receptor [1] = molecular target: T1, Opioid receptor (Rattus norvegicus, UniProt P33533+P34975+P33535); assay: Inhibition of [3H]-Naloxone binding to rat brain membrane without NaCl
Opioid receptor [2] = molecular target: T1, Opioid receptor; assay: Inhibition of [3H]naloxone binding to rat brain membrane with 100 mM NaCl.

For `CO[C@@]12CC[C@@]3(C[C@@H]1[C@](C)(O)C(C)(C)C)[C@H]1Cc4ccc(O)c5c4[C@@]3(CCN1CC1CC1)[C@H]2O5` [BUPRENORPHINE], the IC50 (Opioid receptor [1]) was 0.41 nM and the IC50 (Opioid receptor [2]) was 0.44 nM.
